Data as given in patent US12690590B2, “Phenyl compound and plant disease control method” (SUMITOMO CHEMICAL COMPANY, LIMITED, priority 2020, dated 2026).
Some entries share one result that the patent states for a list of compounds.

Experiments:
Format in all cases: cell-based
[1] = system: Phakopsora pachyrhizi; assay: Test Example 11: test for controlling soybean rust, spore germination on agar in petri dish; conditions: prescribed concentration 10 ppm, 23° C., 1 day
[2] = system: Septoria tritici; assay: Test Example 1: test for controlling wheat leaf blotch, growth in titer plate (PDB broth); conditions: 1 μL of 1500 ppm dimethylsulfoxide solution + 150 μL PDB broth with spores, 96 well, 18° C., 5 days, absorbance at 550 nm
[3] = system: Colletotrichum truncatum; assay: Test Example 2: test for controlling soybean anthracnose, growth in titer plate (PDB broth); conditions: 1 μL of 1500 ppm dimethylsulfoxide solution + 150 μL PDB broth with spores, 96 well, 18° C., 4 days, absorbance at 550 nm

| Compound | number of germinated spores relative to the number of germinated spores in the non-treated plastic petri dish [1] [%] | degree of growth of Septoria tritici in the treated area relative to the degree of growth in the non-treated area [2] [%] | degree of growth of Colletotrichum truncatum in the treated area relative to the degree of growth in the non-treated area [3] [%] |
| --- | --- | --- | --- |
| CCCS(=O)(=O)c1ccn(-c2cc(F)c(C)c(F)c2)n1 [IIA-110] | ≤ 30 | ≤ 50 |  |
| CCS(=O)(=O)c1nc(-c2ccc(C)c(F)c2)cs1 [IIC-21] | ≤ 30 |  |  |
| CCCCSc1ccn(-c2ccc(Cl)cc2)n1 [IIA-51] | ≤ 30 | ≤ 50 |  |
| CCCSc1nc(-c2ccc(F)cc2)cs1 [IC-14] |  | ≤ 50 |  |
| CCCSc1nc(-c2ccccc2Br)cs1 [IC-10] | ≤ 30 | ≤ 50 |  |
| CCCS(=O)(=O)c1nc(-c2cccc(F)c2)cs1 [IIC-20] | ≤ 30 |  |  |
| CCS(=O)(=O)c1nc(-c2ccc(I)cc2)cs1 [IIC-24] | ≤ 30 |  |  |
| CCSc1ccn(-c2ccc(C)cc2F)n1 [IIA-23] |  | ≤ 50 |  |
| CCCS(=O)(=O)c1ccn(-c2ccc(C(F)(F)F)c(F)c2)n1 [IIA-109] | ≤ 30 |  |  |
| CC[S+]([O-])c1ccn(-c2ccccc2F)n1 (centres unmarked) [IIA-64] | ≤ 30 |  |  |
| CCCSc1ccn(-c2ccc(C)cc2)n1 [IIA-41] | ≤ 30 | ≤ 50 |  |
| CCS(=O)(=O)c1ccn(-c2ccc(C(F)(F)F)c(F)c2)n1 [IIA-97] | ≤ 30 |  |  |
| CC(C)CCSc1ccn(-c2ccc(Cl)cc2)n1 [IIA-54] |  |  | ≤ 50 |
| CCSc1ccn(-c2ccc(C(F)(F)F)cc2)n1 [IIA-2] | ≤ 30 |  | ≤ 50 |
| CCCSc1ccn(-c2ccc([N+](=O)[O-])cc2)n1 [IIA-149] |  | ≤ 50 |  |
| CSc1nc(-c2ccccc2)cs1 [IC-25] |  | ≤ 50 |  |
| CCCS(=O)(=O)c1ccn(-c2cc(F)c(Cl)c(F)c2)n1 [IIA-111] | ≤ 30 | ≤ 50 |  |
| CCCS(=O)(=O)c1ccn(-c2ccc(C(C)(C)C)cc2)n1 [IIA-106] |  |  | ≤ 50 |
| CS(=O)(=O)c1nc(-c2ccc(Cl)cc2)cs1 [IC-33] |  | ≤ 50 |  |
| CCCCS(=O)(=O)c1ccn(-c2ccc(Cl)cc2)n1 [IIA-115] | ≤ 30 |  | ≤ 50 |
| CCCS(=O)(=O)c1nc(-c2ccc(OC)cc2)cs1 [IIC-6] | ≤ 30 | ≤ 50 |  |
| CCCCCSc1ccn(-c2ccc(Cl)cc2)n1 [IIA-53] |  |  | ≤ 50 |
| CCS(=O)(=O)c1ccn(-c2ccc(I)cc2)n1 [IIA-73] | ≤ 30 |  |  |
| CCS(=O)(=O)c1ccn(-c2cccc(F)c2)n1 [IIA-78] | ≤ 30 |  |  |

| Compound | number of germinated spores relative to the number of germinated spores in the non-treated plastic petri dish [1] [%] | degree of growth of Septoria tritici in the treated area relative to the degree of growth in the non-treated area [2] [%] | degree of growth of Colletotrichum truncatum in the treated area relative to the degree of growth in the non-treated area [3] [%] |
| --- | --- | --- | --- |
| CCS(=O)(=O)c1ccn(-c2ccc(CC(C)(C)C)cc2)n1 [IIA-91] |  |  | ≤ 50 |
| CCS(=O)(=O)c1ccn(-c2ccc(OC)c(C)c2)n1 [IIA-94] | ≤ 30 |  |  |
| CCS(=O)(=O)c1ccn(-c2ccc(Br)cc2)n1 [IIA-72] | ≤ 30 |  |  |
| Clc1ccc(-n2ccc(Sc3ccncc3)n2)cc1 [IIA-58] |  | ≤ 50 |  |
| CCCSc1cc(F)n(-c2ccc(Cl)cc2)n1 [IIA-202] | ≤ 30 |  |  |
| CCS(=O)(=O)c1ccn(-c2cc(F)cc(F)c2)n1 [IIA-101] | ≤ 30 |  |  |
| CCS(=O)(=O)c1ccn(-c2cc(F)c(Cl)c(F)c2)n1 [IIA-99] | ≤ 30 |  |  |
| CCSc1ccn(-c2ccc(F)cc2)n1 [IIA-5] | ≤ 30 | ≤ 50 |  |
| CCCS(=O)(=O)c1nc(-c2ccc(C)cc2)cs1 [IIC-7] | ≤ 30 | ≤ 50 |  |
| CCS(=O)(=O)c1nc(-c2ccc(OC(F)(F)F)cc2)cs1 [IIC-8] |  | ≤ 50 |  |
| CCCSc1ccn(-c2cccc([N+](=O)[O-])c2)n1 [IIA-150] |  | ≤ 50 |  |
| CCS(=O)(=O)c1nc(-c2ccc(Br)cc2)cs1 [IIC-25] | ≤ 30 |  |  |
| CCCS(=O)(=O)c1ccn(-c2ccc(C)cc2)n1 [IIA-105] | ≤ 30 |  |  |
| CCCS(=O)(=O)c1ccn(-c2ccc(C)c(F)c2)n1 [IIA-107] | ≤ 30 |  |  |
| C=CCS(=O)(=O)c1ccn(-c2ccc(Cl)cc2)n1 [IIA-120] | ≤ 30 |  |  |
| CCS(=O)(=O)c1ccn(-c2ccccc2)n1 [IIA-68] | ≤ 30 |  |  |
| CCS(=O)(=O)c1ccn(-c2cc(F)c(Br)c(F)c2)n1 [IIA-124] | ≤ 30 |  |  |
| CCS(=O)(=O)c1ccn(-c2ccc(C)c(F)c2)n1 [IIA-95] | ≤ 30 |  | ≤ 50 |
| CCCSc1ccn(-c2cccc(NC(=O)C3CC3)c2)n1 [IIA-187] |  | ≤ 50 |  |
| CCCS(=O)(=O)c1nc(-c2ccccc2)cs1 [IC-31] | ≤ 30 |  |  |
| CCCS(=O)(=O)c1nc(-c2ccc(Br)c(F)c2)cs1 [IIC-27] | ≤ 30 |  |  |
| CC(C)CSc1ccn(-c2ccc(Cl)cc2)n1 [IIA-52] | ≤ 30 |  | ≤ 50 |
| CCS(=O)(=O)c1ccn(-c2cc(F)c(C)c(F)c2)n1 [IIA-100] | ≤ 30 |  |  |
